The values that follow come from US20040214255A1.

Sequences of proteins named here, by UniProt entry; tags and fusion partners are left off. Residues count along the entry.
UniProt Q15025, residues 160-500: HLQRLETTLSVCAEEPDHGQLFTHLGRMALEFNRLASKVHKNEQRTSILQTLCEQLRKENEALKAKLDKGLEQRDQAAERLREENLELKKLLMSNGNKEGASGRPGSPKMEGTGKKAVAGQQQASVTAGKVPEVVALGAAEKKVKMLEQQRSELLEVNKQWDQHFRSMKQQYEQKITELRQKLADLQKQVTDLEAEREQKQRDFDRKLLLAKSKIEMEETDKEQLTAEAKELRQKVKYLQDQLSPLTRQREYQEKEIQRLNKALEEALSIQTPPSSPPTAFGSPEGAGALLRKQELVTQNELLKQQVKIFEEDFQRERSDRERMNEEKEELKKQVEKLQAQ
Insulin-Regulated Membrane-Spanning Aminopeptidase (IRAP), amino acids 1-273 (Q9UIQ6, residues 1-273): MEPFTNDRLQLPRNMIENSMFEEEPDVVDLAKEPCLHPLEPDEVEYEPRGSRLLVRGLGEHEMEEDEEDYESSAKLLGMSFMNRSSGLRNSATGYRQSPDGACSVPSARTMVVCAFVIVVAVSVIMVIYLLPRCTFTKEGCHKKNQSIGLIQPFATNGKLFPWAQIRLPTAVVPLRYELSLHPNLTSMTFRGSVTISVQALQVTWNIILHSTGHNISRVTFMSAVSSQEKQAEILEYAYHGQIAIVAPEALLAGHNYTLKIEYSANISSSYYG
Insulin-Regulated Membrane-Spanning Aminopeptidase (IRAP), amino acids 750-1026 (Q9UIQ6, residues 750-1025): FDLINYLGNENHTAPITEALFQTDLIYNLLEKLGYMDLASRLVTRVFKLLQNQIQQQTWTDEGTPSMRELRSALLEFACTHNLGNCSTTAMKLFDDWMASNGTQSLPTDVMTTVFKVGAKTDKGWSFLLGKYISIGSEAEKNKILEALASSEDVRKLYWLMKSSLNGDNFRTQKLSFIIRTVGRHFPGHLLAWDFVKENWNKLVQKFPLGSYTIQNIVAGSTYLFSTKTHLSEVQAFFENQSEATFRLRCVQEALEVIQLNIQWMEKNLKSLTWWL
UniProt Q99471, residues 14-154: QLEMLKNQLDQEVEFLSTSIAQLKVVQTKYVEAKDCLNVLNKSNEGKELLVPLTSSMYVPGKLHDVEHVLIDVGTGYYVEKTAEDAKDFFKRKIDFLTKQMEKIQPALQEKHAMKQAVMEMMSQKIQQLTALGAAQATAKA
UniProt P11166, residues 448-468: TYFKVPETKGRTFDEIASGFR

Common to all, as to assay: yeast two-hybrid
For assay [1], the target named is T1, PTP1b, amino acids 280-436 (human) (UniProt P18031).
T1 sequence (looked up): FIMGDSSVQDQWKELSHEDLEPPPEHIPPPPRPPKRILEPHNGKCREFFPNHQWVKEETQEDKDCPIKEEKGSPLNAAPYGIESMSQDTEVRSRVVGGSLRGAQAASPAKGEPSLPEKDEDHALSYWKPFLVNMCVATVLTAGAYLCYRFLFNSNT

For assay [2], the target named is Nef-Associated Factor 1 beta (Naf1b), amino acids 160-500 (human) (UniProt Q15025).
Assay [3] deals with Insulin-Regulated Membrane-Spanning Aminopeptidase (IRAP), amino acids 750-1026 (human) (UniProt Q9UIQ6).
Assay [4] concerns the target T2, Rab4, amino acids 1-214 (human) (UniProt P20338).
T2 sequence (looked up): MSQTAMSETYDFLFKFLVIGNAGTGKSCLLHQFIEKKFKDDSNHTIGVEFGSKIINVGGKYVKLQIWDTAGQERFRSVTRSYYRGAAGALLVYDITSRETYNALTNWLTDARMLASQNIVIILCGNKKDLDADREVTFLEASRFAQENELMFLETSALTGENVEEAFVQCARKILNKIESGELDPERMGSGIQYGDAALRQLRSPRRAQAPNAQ

Assay [5] has as its target C-myc Binding Protein (MM-1), amino acids 27-175 (human) (UniProt Q99471).
The target of assay [6] is Insulin-Regulated Membrane-Spanning Aminopeptidase (IRAP), amino acids 1-273 (human) (UniProt Q9UIQ6).
Assay [7] concerns the target Glucose Transporter 1, amino acids 448-468 (human) (UniProt P11166).

These are yes or no findings as the source states them, for the method shown. Some entries that bind do so weakly or less than the wild type.

B1: VAP-A, amino acids 3-242 (protein, human, UniProt Q9P0L0 3-242, looked up)
chain: SASGAMAKHEQILVLDPPTDLKFKGPFTDVVTTNLKLRNPSDRKVCFKVKTTAPRRYCVRPNSGIIDPGSTVTVSVMLQPFDYDPNEKSKHKFMVQTIFAPPNTSDMEAVWKEAKPDELMDSKLRCVFEMPNENDKLNDMEPSKAVPLNASKQDGPMPKPHSVSLNDTETRKLMEECKRLQGEMMKLSEENRHLRDEGLRLRKVAHSDKPGSTSTASFRDNVTSPLPSLLVVIAAIFIGF
In the case of B1, the binding entry in assay [1] is reported as “binds”.

B2: I-TRAF, amino acids 17-424 (protein, human, UniProt Q92844 17-424, looked up)
chain: RQACMDRDSAVKELQQKTENYEQRIREQQEQLSLQQTIIDKLKSQLLLVNSTQDNNYGCVPLLEDSETRKNNLTLDQPQDKVISGIAREKLPKVRRQEVSSPRKETSARSLGSPLLHERGNIEKTFWDLKEEFHKICMLAKAQKDHLSKLNIPDTATETQCSVPIQCTDKTDKQEALFKPQAKDDINRGAPSITSVTPRGLCRDEEDTSFESLSKFNVKFPPMDNDSTFLHSTPERPGILSPATSEAVCQEKFNMEFRDNPGNFVKTEETLFEIQGIDPIASAIQNLKTTDKTKPSNLVNTCIRTTLDRAACLPPGDHNALYVNSFPLLDPSDAPFPSLDSPGKAIRGPQQPIWKPFPNQDSDSVVLSGTDSELHIPRVCEFCQAVFPPSITSRGDFLRHLNSHFNGE
Turning to B2, the binding result in assay [2] is listed as “binds”.

B3: SG2NA, amino acids 623-713 (protein, not shown: small tags and cut ends)
chain: FFDNKTGKMIHSMVAHLDAVTSLAVDPNGIYLMSGSHDCSIRLWNLDSKTCVQEITAHRKKLDESIYDVAFHSSKAYIASAGADALAKVFV
Take B3: the binding entry in assay [3] was “binds”.

B4: Alpha-catenin-like Protein, amino acids 510-648 (protein, human, UniProt Q9UBT7 510-648, looked up)
chain: SQISDMSTLLREINDVFEGRRGEKYGYLSLPKPMKNNANLKSLKPDKPDSEEQAKIAKLGLKLGLLTSDADCEIEKWEDQENEIVQYGRNMSSMAYSLYLFTRGEGPLKTSQDLIHQLEVFAAEGLKLTSSVQAFSKQL
Turning to B4, in assay [4], the binding entry is given as “binds”.

B5: C-Nap1, amino acids 279-426 (protein, human, UniProt Q9BV73 279-426, looked up)
chain: AELQDRVTELSALLTQSQKQNEDYEKMIKALRETVEILETNHTELMEHEASLSRNAQEEKLSLQQVIKDITQVMVEEGDNIAQGSGHENSLELDSSIFSQFDYQDADKALTLVRSVLTRRRQAVQDLRQQLAGCQEAVNLLQQQHDQW
On to B5, for which the binding entry in assay [5] is listed as “binds”.

B6: VAP-A, amino acids 3-243 (protein, human, UniProt Q9P0L0 3-243, looked up)
chain: SASGAMAKHEQILVLDPPTDLKFKGPFTDVVTTNLKLRNPSDRKVCFKVKTTAPRRYCVRPNSGIIDPGSTVTVSVMLQPFDYDPNEKSKHKFMVQTIFAPPNTSDMEAVWKEAKPDELMDSKLRCVFEMPNENDKLNDMEPSKAVPLNASKQDGPMPKPHSVSLNDTETRKLMEECKRLQGEMMKLSEENRHLRDEGLRLRKVAHSDKPGSTSTASFRDNVTSPLPSLLVVIAAIFIGFF
In the case of B6, the binding result in assay [6] is “binds”.

B7: DRAL(FHL2), amino acids 1-280 (protein, human, UniProt Q14192 1-279, looked up)
chain: MTERFDCHHCNESLFGKKYILREESPYCVVCFETLFANTCEECGKPIGCDCKDLSYKDRHWHEACFHCSQCRNSLVDKPFAAKEDQLLCTDCYSNEYSSKCQECKKTIMPGTRKMEYKGSSWHETCFICHRCQQPIGTKSFIPKDNQNFCVPCYEKQHAMQCVQCKKPITTGGVTYREQPWHKECFVCTACRKQLSGQRFTARDDFAYCLNCFCDLYAKKCAGCTNPISGLGGTKYISFEERQWHNDCFNCKKCSLSLVGRGFLTERDDILCPDCGKDI
As for B7, in assay [7], the binding result was “binds”.
